Experimental data reported in publication PMC10758103.
These are yes or no findings as the source states them, for the method shown. For some of these results: Binding seen in cells or lysates may run through a third protein. Some binding calls cover weakened binding; strength is not graded here.

Protein sequences, listed by entry. Tags and fused reporters are not part of them. Lines headed by an entry give the natural chain unless they say otherwise; changes in a name come on top. Chains listed by the source or under a name are the forms on record and can include a tag or linker. Residues count along the entry.
UniProt Q07021: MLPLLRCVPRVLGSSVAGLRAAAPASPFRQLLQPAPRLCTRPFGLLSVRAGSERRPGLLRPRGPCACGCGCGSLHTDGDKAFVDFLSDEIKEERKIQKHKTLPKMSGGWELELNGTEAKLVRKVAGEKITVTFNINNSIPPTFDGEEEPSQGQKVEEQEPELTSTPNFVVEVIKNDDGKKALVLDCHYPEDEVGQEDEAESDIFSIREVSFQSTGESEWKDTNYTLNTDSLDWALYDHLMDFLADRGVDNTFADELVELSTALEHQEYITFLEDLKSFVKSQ
p32 (endogenous) (human (endogenous in HEK-293T, ACHN and 786-O)): residues 74-282 of Q07021
FLAG-tagged C-terminal p32 (amino acids 175-282): residues 175-282 of Q07021

Key:
[1] = molecular target: p32 (endogenous) (human (endogenous in HEK-293T, ACHN and 786-O)) (UniProt Q07021); experiment: co-IP; 786-O cells treated with or without 200 nM elesclomol and CuSO4 for 24 h; western blot
[2] = molecular target: FLAG-tagged p32 without the transit-peptide domain (amino acids 74-282) (UniProt Q07021); experiment: co-IP; HEK-293T cells 48 h after transfection of FLAG-p32 domain plasmids; lysate on Anti-DYKDDDDK Magnetic Agarose, 4°C overnight; five washes with IP buffer; immunoblot for DLAT
[3] = molecular target: FLAG-tagged p32 full length (amino acids 1-282) (UniProt Q07021); experiment: as above
[4] = molecular target: FLAG-tagged C-terminal p32 (amino acids 175-282) (UniProt Q07021); experiment: as above
[5] = molecular target: p32 (endogenous) (human (endogenous in HEK-293T, ACHN and 786-O)) (UniProt Q07021); experiment: co-IP; ACHN cell lysate; rabbit anti-p32 polyclonal antibody on Dynabeads Protein A, normal rabbit IgG as control; IP buffer 40 mM Tris-Cl, 120 mM NaCl, 1% Triton X-100; 4°C overnight; immunoblot with anti-DLAT
[6] = molecular target: lipoylated DLAT (lipo-DLAT), endogenous (human (endogenous in 786-O and ACHN)) (UniProt P10515); experiment: non-reducing gel electrophoresis with immunoblot; ACHN cells, control and with stable expression of p32 (Figure S3B, C)
[7] = molecular target: lipoylated DLAT (lipo-DLAT), endogenous (human (endogenous in 786-O and ACHN)) (UniProt P10515); experiment: non-reducing gel electrophoresis with immunoblot; 786-O-pCDH and 786-O-p32 cells treated with concentration gradients of elesclomol and CuSO4; lysates not boiled or sonicated, no reducing reagent in the loading buffer

| binding [1] | binding [2] | binding [3] | binding [4] | binding [5] | binding [6] | binding [7] | Binder |
| --- | --- | --- | --- | --- | --- | --- | --- |
| binds | binds | binds | binds | binds |  |  | Dihydrolipoyllysine-residue acetyltransferase component of pyruvate dehydrogenase complex (DLAT), endogenous (protein, UniProt P10515 87-647) SLPPHQKVPLPSLSPTMQAGTIARWEKKEGDKINEGDLIAEVETDKATVGFESLEECYMAKILVAEGTRDVPIGAIICITVGKPEDIEAFKNYTLDSSAAPTPQAAPAPTPAATASPPTPSAQAPGSSYPPHMQVLLPALSPTMTMGTVQRWEKKVGEKLSEGDLLAEIETDKATIGFEVQEEGYLAKILVPEGTRDVPLGTPLCIIVEKEADISAFADYRPTEVTDLKPQVPPPTPPPVAAVPPTPQPLAPTPSAPCPATPAGPKGRVFVSPLAKKLAVEKGIDLTQVKGTGPDGRITKKDIDSFVPSKVAPAPAAVVPPTGPGMAPVPTGVFTDIPISNIRRVIAQRLMQSKQTIPHYYLSIDVNMGEVLLVRKELNKILEGRSKISVNDFIIKASALACLKVPEANSSWMDTVIRQNHVVDVSVAVSTPAGLITPIVFNAHIKGVETIANDVVSLATKAREGKLQPHEFQGGTFTISNLGMFGIKNFSAIINPPQACILAIGASEDKLVPADNEKGFDVASMMSVTLSCDHRVVDGAVGAQWLAEFRKYLEKPITMLL |
|  |  |  |  |  | binds | binds | lipoylated DLAT (lipo-DLAT), endogenous (protein, UniProt P10515 87-647, lipoylated (sites not given)) SLPPHQKVPLPSLSPTMQAGTIARWEKKEGDKINEGDLIAEVETDKATVGFESLEECYMAKILVAEGTRDVPIGAIICITVGKPEDIEAFKNYTLDSSAAPTPQAAPAPTPAATASPPTPSAQAPGSSYPPHMQVLLPALSPTMTMGTVQRWEKKVGEKLSEGDLLAEIETDKATIGFEVQEEGYLAKILVPEGTRDVPLGTPLCIIVEKEADISAFADYRPTEVTDLKPQVPPPTPPPVAAVPPTPQPLAPTPSAPCPATPAGPKGRVFVSPLAKKLAVEKGIDLTQVKGTGPDGRITKKDIDSFVPSKVAPAPAAVVPPTGPGMAPVPTGVFTDIPISNIRRVIAQRLMQSKQTIPHYYLSIDVNMGEVLLVRKELNKILEGRSKISVNDFIIKASALACLKVPEANSSWMDTVIRQNHVVDVSVAVSTPAGLITPIVFNAHIKGVETIANDVVSLATKAREGKLQPHEFQGGTFTISNLGMFGIKNFSAIINPPQACILAIGASEDKLVPADNEKGFDVASMMSVTLSCDHRVVDGAVGAQWLAEFRKYLEKPITMLL |
